# Source: PubChem BioAssay AID493014 (National Center for Advancing Translational Sciences (NCATS), 2011)
# Screen size: about 340,000 compounds; about 170 (0.05%) were called active. Inconclusive means that the source gave no clear call. Such entries were picked first, then a sample of the others. Calls follow the shape of the dose curve; as a rule, active = well fitted inhibition curve with a large enough effect in the signal ratio, with a control signal flat (not every such curve was filed as active); inconclusive = small, poorly fitted or top-dose-only effect, or effect the other way, or a change in a side signal; inactive = flat fitted curve, though single readings scatter; the % refers to the signal ratio. Potencies of inconclusive entries are doubtful fits and often do not repeat.
# Assay: qHTS Assay to Find Inhibitors of Chronic Active B-Cell Receptor Signaling;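 as to activity change, negative = inhibition: plate controls were basal doxycycline-induced cells for no effect and cells given 10 µM MG132 for full effect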
# Settings: ABC-DLBCL IkBa-CBG/CBR reporter, luminescence ratio (green luciferase fused to IkBa over red control in TMD8 lymphoma cells), 4 h; activity change, negative = inhibition: at 46.1 µM (top of the series)
# In short: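 TMD8 human ABC-DLBCL cells with doxycycline-inducible IκBα–green luciferase fusion and unfused red luciferase, in 0.5% FBS medium; compounds up to 46 uM, 4 h at 37C. Green/red luminescence ratio, filter-overlap corrected, fitted to concentration-response curves.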
# Potency is read from the fitted curve at half-maximal effect.
SMILES,Potency,"activity change, negative = inhibition"
CCN(CCCNC(=O)CCCN1C(=O)COc2ccc(C)cc21)c1cccc(C)c1,"inconclusive: 35.5 µM [falling, single point]",
CC(=O)Nc1ccc(NC(=O)C(C)OC(=O)CN(C)S(=O)(=O)c2ccc(Cl)cc2)cc1 (stereo unspecified),,inconclusive: -18.9%
CCOc1cc(/C=N/O)ccc1OCc1ccc(F)cc1,,inconclusive: -2.79%
COc1ccccc1N(CC(=O)Nc1cc(C)on1)S(=O)(=O)c1ccc(Cl)cc1,,inconclusive: 25.1%
Nc1ncnc2nc(SCC(=O)Nc3ccccc3F)[nH]c12,"inconclusive: 15.8 µM [falling, partial curve, poor fit]",
COC(=O)c1c(C(=O)OC)c2n(c1C)CCS2,,inconclusive: -22.3%
CC(=O)O/N=C(\N)c1cnn2c(C(F)(F)F)cc(C(F)(F)F)nc12,,inconclusive: 10.2%
COc1cc(CN2CCC(C(=O)NC3CCCC3)CC2)ccc1O,,inconclusive: 1.68%
Cc1ccc(S(=O)(=O)N(Cc2ccc(C(F)(F)F)cc2)C(=O)N2CCN(C)CC2)cc1,,inconclusive: -1.75%
Cc1ncc(CO)c2c1Oc1nc(-c3ccccc3F)nc(SCC(=O)N(C)c3ccccc3)c1C2,,inactive
O=C(O)COn1c(-c2ccccc2)nc2ccc(Cl)cc21,"inconclusive: 22.4 µM [falling, partial curve]",
COc1ccc(/C(O)=C2/C(=O)C(=O)N(Cc3cccnc3)C2c2ccncc2)cc1F (stereo unspecified),,inconclusive: 9.71%
CCCn1nnc2ccccc2c1=O,,inactive
Cc1cccc(Cl)c1NC(=S)N1CCN(c2ccc([N+](=O)[O-])cn2)CC1,,inconclusive: -3.62%
Cc1ccc(-n2c(Cc3cccs3)nnc2SCC(=O)Nc2ccc(S(N)(=O)=O)cc2)cc1,,inconclusive: -0.45%
O=[N+]([O-])c1cccc(CN2CCC(Cc3ccccc3)CC2)c1,,inactive
O=C(Nc1ccc(F)cc1)Nc1ccc(NC(=O)c2ccccc2O)cc1,,inconclusive: 10.7%
COc1ccc(/C=C2\Sc3ccc(C(=O)NCC4CCCO4)cc3N(C)C2=O)cc1 (stereo unspecified),,inconclusive: -7.01%
COC(=O)CC1(C(=O)OC)Oc2ccc(Br)cc2C(=O)N1c1cccc(Cl)c1Cl (stereo unspecified),,inconclusive: -9.46%
CC(Sc1nc2scc(-c3ccccc3)c2c(=O)[nH]1)C(=O)NC(N)=O (stereo unspecified),,inconclusive: 11.7%
O=C1CCCN1CC(O)CS(=O)(=O)Cc1ccc(Cl)c(Cl)c1 (stereo unspecified),,inactive

SMILES,Potency,"activity change, negative = inhibition"
COc1ccc(Nc2ccc3c(c2)=NC2(CCCCC2)[N+]=3[O-])cc1,"inconclusive: 5.62 µM [falling, single point]",
O=C(Nc1ccccc1C(=O)Nc1ccccc1)c1ccco1,,inconclusive: -2.05%
CC(C)NC(=O)c1ccc(-c2ccccc2C(F)(F)F)o1,,inconclusive: -0.764%
COc1cc2c(cc1OC)C(COc1ccc(F)cc1)N(C(C)=O)CC2 (stereo unspecified),,inconclusive: -5.97%
COc1ccc(/C=N/n2c(N)nc3ccccc32)cc1OC,"inconclusive: 0.398 µM [falling, partial curve, poor fit]",
CC(NC(=O)Cc1ccccc1)C1COc2ccccc2O1 (stereo unspecified),,inactive
CCCCCCCCCCOC(=O)Cn1c(COc2ccccc2)[n+](C)c2ccccc21,"inconclusive: 15.8 µM [falling, single point]",
COC(=O)c1c(-c2ccccc2)csc1NC(=O)c1c(-c2ccccc2)noc1C,"inconclusive: 8.2 µM [rising, partial curve, poor fit]",
Cc1cccc(NC(=O)CSc2nc3[nH]ncc3c(=O)[nH]2)c1,,inconclusive: 4.52%
Cc1[nH]c2c(C)cccc2c(=O)c1Br,,inconclusive: 18.6%
CN=Cc1sc2ccccc2c1O,"inconclusive: 17.8 µM [falling, partial curve]",
CN(CCC#N)C(=O)CSc1ncnc2sc(-c3ccccc3)cc12,,inconclusive: -20.2%
COC(=O)[C@H](CCSC)NC(=O)Cn1cnc2c(NCc3ccccc3)ncnc21,,inactive
CCC(=O)Nc1nc(-c2ccc3c(c2)CC(C)N3S(C)(=O)=O)cs1 (stereo unspecified),,inconclusive: -2.12%
CCOC(=O)Cc1nnc(Nc2ccc(C(=O)NC)cc2)c2ccccc12,"inconclusive: 6.31 µM [falling, partial curve]",
CCN(c1ccccc1)S(=O)(=O)c1ccc(Cl)c(NC(=O)COC(=O)c2cccc(OC)c2O)c1,,inactive
COc1ccc(CN(C)C(=O)CSc2nnc(C3CC3)n2C2CC2)cc1,,inactive
COc1c(O)cc2oc(-c3ccc(O)c(O)c3)cc(=O)c2c1O,"inconclusive: 22.4 µM [falling, single point]",
Cc1ccc(NC(=O)CN2C(=O)c3ccccc3Sc3ccc(C(=O)N4CCOCC4)cc32)cc1F,"inconclusive: 14.1 µM [falling, single point]",
COc1ccc(NC(=S)NCCN2CCC(C)CC2)cc1Cl,,inconclusive: -10.3%
CCOc1cc(S(=O)(=O)NCc2ccccn2)ccc1Cl,,inconclusive: -14.6%

SMILES,Potency,"activity change, negative = inhibition"
COc1ccc(-c2nc(CS(=O)(=O)CC(=O)NC3CCC(C)CC3)c(C)o2)cc1 (stereo unspecified),,inactive
COc1ccc2c(c1)c(=O)oc1c(C)c(OC(C)C(=O)N[C@@H](Cc3c[nH]c4ccc(O)cc34)C(=O)O)ccc12 (stereo partly specified),"inconclusive: 10 µM [rising, partial curve, poor fit]",
Cc1ccc(S(=O)(=O)Oc2cccc(/C=N/Nc3ccc(C(=O)O)cc3)c2)cc1,"inconclusive: 20 µM [falling, partial curve]",
COC(=O)C(Cc1ccccc1)NC(=O)CC(C)CC(=O)Nc1ccc(C)cc1 (stereo unspecified),,inactive
Cc1ccc(C(c2sc3nc(-c4ccco4)nn3c2O)N2CCCC2)cc1 (stereo unspecified),,inactive
O=C(Nc1ccc(Cl)c(Cl)c1)N1CCCCCC1,,inconclusive: -12.4%
O=C(CSC(=S)N1CCCC1)Nc1cc2c(cc1Br)OCCO2,,inconclusive: -2.59%
CC12CCC(=O)N1C(C(=O)OCC(=O)Nc1cc(S(=O)(=O)N3CCCCC3)ccc1Cl)CS2 (stereo unspecified),,inconclusive: 2.53%
C[C@H]1CN([C@@H](C)CO)C(=O)c2cc(NS(=O)(=O)c3ccc(Cl)cc3)ccc2O[C@@H]1CN(C)CC1CCCCC1,,inactive
Cc1cc(C(=O)Nc2ccc([N+](=O)[O-])cn2)cs1,,inconclusive: -12.9%
CCCNC(=O)c1ccc(N2CCC3(CC2)CC(c2ccccc2)=NO3)c(NC(=O)c2cccc(C)c2)c1,,inactive
CCOC(=O)/C(=N/Nc1ccccc1)N1CCCc2ccccc21,,inactive
COc1cccc(-c2sc3ccc(OC)cc3c2-c2ccc(OCCN(C)C)cc2)c1,,inactive
C=CCn1c(O)c(N=NC(=S)Nc2ccc(OC)c(Cl)c2)c2ccccc21,,inactive
Cc1cc(C)n(-c2nc(Nc3ccccc3C(F)(F)F)nc(-n3nc(C)cc3C)n2)n1,"inconclusive: 7.31 µM [rising, partial curve]",
Cc1ccc2c(c1)c1nnc(SCC(=O)Nc3ccccc3C(F)(F)F)nc1n2CC(=O)O,,inconclusive: -1.56%
O=C(Nc1ccccc1)Nc1ccno1,,inconclusive: -15.9%
COc1ccc(OCc2ccc(C(=O)N3CCOCC3)cc2)cc1,,inconclusive: -125%
Cc1onc(-c2ccccc2)c1C(=O)Nc1nnc(-c2ccncc2)s1,"inconclusive: 23.1 µM [falling, partial curve, poor fit]",
CCCCN(C(=O)c1cc(OC)c(OC)c(OC)c1)C1=CC2CCC(C1)N2C (stereo unspecified),,inconclusive: 3.96%
C=CCn1c(SCc2ccc(Cl)c(Cl)c2)nnc1C(CO)NC(=O)c1ccc(OC)cc1 (stereo unspecified),,inconclusive: 5.35%

SMILES,Potency,"activity change, negative = inhibition"
Cc1cc(C)c(S(=O)(=O)N2CCN=C2c2ccccc2)c(C)c1,,inconclusive: -0.401%
O=C(NN=C1CCCC1)c1cccc(Br)c1,"inconclusive: 25.1 µM [falling, single point]",
COc1ccccc1-n1cc2c([N+](=O)[O-])cc([N+](=O)[O-])cc2n1,,inactive
Cc1ccc(NC2CCCN(C(=O)CSc3ccncc3)C2)cc1C (stereo unspecified),,inactive
NC(=O)c1ccccc1N/C=C/C(=O)c1ccco1,"inconclusive: 4.61 µM [falling, single point]",
CC(OC(=O)CCCC(=O)Nc1ccc(F)cc1)C(=O)c1ccccc1 (stereo unspecified),,inactive
COc1ccc(/C=C/C(=O)OCC(=O)N2CCCCCC2)c(OC)c1,,inactive
CCc1cccc(NC(=O)CCc2nc3sc4c(c3c(=O)[nH]2)CCCC4)c1,"inconclusive: 25.9 µM [falling, partial curve, poor fit]",
CCCN=C(N)/C(C(=O)OCC)=C(\O)c1ccc(OC)cc1,"inconclusive: 16.4 µM [falling, partial curve, poor fit]",
CCC(C)(C)C1CCC2(CC1)NC(=O)N(CC(=O)N1CCN(C(=O)c3ccco3)CC1)C2=O (stereo unspecified),,inactive
Cc1ccc(-c2ccc(/C=N\NC(=O)C3C(=O)NCC3c3ccccc3)o2)cc1Cl (stereo unspecified),"inconclusive: 29.1 µM [rising, single point]",
CCOc1ccc(C2NC(=O)c3ccccc3O2)cc1OCC (stereo unspecified),,inactive
Nc1c(Cl)ncnc1N1CCCC1,,inactive
COc1ccc(-c2noc(-c3ccc(Br)o3)n2)cc1OC,"inconclusive: 1.3 µM [rising, full curve, poor fit]",
CCNc1cc(O)ccc1C,,inconclusive: -10.2%
COc1cccc(NC(=O)CNC(=O)c2ccccc2)c1,,inconclusive: 1%
Cc1[nH]c2ccc(C(=O)N3CCN(c4ccccc4Cl)CC3)cc2c1C,,inactive
COc1ccc(NC(=O)C2CCN(C(=O)C3CC(=O)N(c4ccc(C)cc4)C3)CC2)cc1 (stereo unspecified),,inconclusive: 11.5%

# Taken from above:
# Under activity change, negative = inhibition, CCOc1ccc(C2NC(=O)c3ccccc3O2)cc1OCC (stereo unspecified) has inactive
# Under activity change, negative = inhibition, CC(OC(=O)CCCC(=O)Nc1ccc(F)cc1)C(=O)c1ccccc1 (stereo unspecified) has inactive
# Under Potency, NC(=O)c1ccccc1N/C=C/C(=O)c1ccco1 has inconclusive: 4.61 µM [falling, single point]
# Under Potency, CCCN=C(N)/C(C(=O)OCC)=C(\O)c1ccc(OC)cc1 has inconclusive: 16.4 µM [falling, partial curve, poor fit]
# Under activity change, negative = inhibition, COc1ccccc1-n1cc2c([N+](=O)[O-])cc([N+](=O)[O-])cc2n1 has inactive
